Measured values published in the supplement of paper PMC6119338.
The other results are listed elsewhere or left out. Many values rest on one well or one pass, so single values are uncertain.

Each compound was assayed on Plasmodium berghei sporozoites (assay: residual sporozoite gliding motility relative to DMSO control; higher = less inhibition of motility). Settings: 10 µM; incubation time 30 min.

Residual sporozoite gliding motility, > 50%:
COc1cc(C(=O)Nc2nc3c(cc4c5c(cccc53)CC4)s2)cc(OC)c1OC
O=c1cc(NC2CCN(CCCc3ccccc3)CC2)c2cc(Cl)ccc2o1
Cc1cc(N(C)C)nc(Nc2ccc(NC(=O)Nc3ccccc3)cc2)n1
CCCn1c(=N)c(C(=O)NC2CCCCC2)cc2c(=O)n3cccc(C)c3nc21
COc1cccc(C2(C)Nc3ccccc3-c3nc4ccccc4n32)c1 (centres undefined)
COCCNCC(O)Cn1c2ccc(Cl)cc2c2cc(Cl)ccc21 (centres undefined)
COc1cccc(Cn2c(Oc3ccccc3)nc3c2c(=O)n(C)c(=O)n3C)c1
CCOc1ccc(CN2CCN(CC(O)COc3ccc(OCC(O)CN4CCN(Cc5ccc(OCC)cc5)CC4)cc3)CC2)cc1 (centres undefined)
COc1ccc(C2Sc3ccccc3N=C3C2=C(O)c2ccccc23)cc1 (centres undefined)
CCCCOc1ccc(C(=O)Nc2cc(C)on2)cc1
CCc1ccc(Nc2cc(C)nc3nc(C)nn23)cc1
CCCCCCn1c(=N)n(CC(O)COc2cccc(C)c2)c2ccccc21 (centres undefined)
Cc1cc(Nc2ccc(C)c(Cl)c2)n2nc(C(F)(F)F)nc2n1
CCN(CC)S(=O)(=O)c1ccc(-c2csc(Nc3ccc(C)c(C)c3)n2)cc1
CCN(CC)c1ccc(NC(=O)c2cccs2)cc1
CCCCCn1c(=N)n(CC(O)COc2cccc(C)c2)c2ccccc21 (centres undefined)
CCCCCCc1cc2cc(-c3csc(C=Cc4ccccc4)n3)c(=O)oc2cc1O
O=C(Nc1ccc(CN2CCOCC2)cc1)c1ccc(-c2ccc(Br)cc2)o1
COc1nc(Nc2ccc(C(C)C)cc2)nc(OC)n1

An excerpt from above in order of length of the SMILES, largest number first:
Residual sporozoite gliding motility, > 50%:
COc1cc(C(=O)Nc2nc3c(cc4c5c(cccc53)CC4)s2)cc(OC)c1OC
O=C(Nc1ccc(CN2CCOCC2)cc1)c1ccc(-c2ccc(Br)cc2)o1
CCN(CC)c1ccc(NC(=O)c2cccs2)cc1
